# For at least one compound, name, drawing or mass did not settle the structure.
# Key:
# Parp = assay: Western blot of Parp cleavage; assay type: cell-based, human; settings: first 4 days of treatment
# Excerpt: Wherein figure (A and B) show the influence of different small molecules on proliferation rate of the stem cells by means of cell cycle analysis and BrdU proliferation detection. (C) Western blot analysis of intracellular Parp protein cleavage to estimate cell death under different treatment. (D) Influence of rapamycin on activity of apoptosis executive caspase 3/7 determined by luciferase reporter system. (E) Detection of the proportion of cell death treated with or without rapamycin by Annexin V/PI staining at the end of the culture on day 3 and day 4. […] All the results are statistically analyzed for at least 3 independently repeated experiments (* P<0.05, ** P<0.01).
# Caspase 3, 6, and 7 are the execution proteins of apoptosis and are mainly responsible for the cleavage of structural proteins and regulatory proteins in the nucleus and cytoplasm.
# stem cells [1] = assay: Cell cycle analysis and BrdU cell proliferation assay; assay type: cell-based, human; settings: compared with DMSO control group
# Method: After 10 μM BrdU (Sigma-Aldrich) was added to incubate the cells for 1 hour, cells were harvested, digested and centrifuged at 300 g for 5 minutes. Cells were collected, washed once with PBS containing 0.5% BSA (wash solution) at room temperature, and resuspended in 1 ml of PBS. 3 ml of pre-cooled ethanol was added with shaking and settled for 20 minutes at room temperature. Centrifuge to remove the supernatant, wash once with PBS, centrifuge to remove supernatant, loosen the pellet by flicking a few times, add 1 ml of the freshly prepared denaturation solution (2M HCl) and mix. Allow to stand at room temperature for 20 minutes; add 1 ml of 0.1 M sodium borate (pH 8.5) to neutralize for 2 minutes at room temperature; rinse once and add anti-BrdU antibody (BD Biosciences 1:50 dilution) prepared with PBS containing 0.5% Tween 20/0.5% BSA (Sigma-Aldrich); aspirate primary antibody, rinse with 1 ml wash solution, add Alexa-488-anti-mouse (1:1000), incubate for 20 minutes at room temperature; aspirate secondary antibody, rinse again, resuspend with 0.5 ml 10 μg/ml PI solution and incubate for 30 minutes at room temperature. The supernatant was removed by centrifugation, rinsed again with a wash solution, and tested with flow cytometry.
# caspase 3/7 = assay: Caspase-Glo 3/7 activity assay; assay type: cell-based, human; settings: treated 2 days
# [2] = tested on: human embryonic stem cells; assay: Cell count of stem cells in high-density monolayer culture; assay type: cell-based; settings: DMSO, CHIR or CHIR+rapamycin; 5×10^4/cm^2, days 1-4
# Method: The correlated detection was performed under three treatment conditions of DMSO, CHIR and CHIR+rapamycin. […] (Due to the replacement of the culture medium on the 4th day, stem cells underwent massive death because of the rapid changes in the environment).
# [3] = tested on: human embryonic stem cells; assay: CCK-8 cell proliferation and viability; assay type: cell-based; settings: rapamycin added to CHIR
# stem cells [4] = assay: Annexin V/PI staining of apoptosis and cell death; assay type: cell-based, human; settings: 4th day, 24 hours after replacing with RPMI/B27 differentiation medium
# Method: Annexin V/PI staining: Annexin V/PI kit (Roche) was used in this experiment. The cells were cultured in 24-well plates. At the specified time, the cells were digested into single cells with accutase and washed once with PBS. The cells were incubated with staining solution containing Annexin V and PI for 10 minutes. Care was taken to avoid light. 5 volumes of incubation solution was added to dilute thereby stopping the reaction and tested by flow cytometry immediately, the excitation lights were 488 nm and 518 nm, the emission lights were 488-540 nm and 617 nm.
structure (smiles),measurement,setting,value
CO[C@H]1C[C@@H]2CC[C@@H](C)[C@@](O)(O2)C(=O)C(=O)N2CCCC[C@H]2C(=O)O[C@H]([C@H](C)C[C@@H]2CC[C@@H](O)[C@H](OC)C2)CC(=O)[C@H](C)/C=C(\C)[C@@H](O)[C@@H](OC)C(=O)[C@H](C)C[C@H](C)/C=C/C=C/C=C/1C [Rapamycin],Parp cleavage band,Parp,significantly inhibited the cleavage of Parp
same,proportion of cells in S phase and proportion of BrdU positive cells,stem cells [1],attenuated the promotion effect
same,activity of intracellular caspase 3/7 relative to CHIR alone treatment,caspase 3/7,half
same,stem cell number,[2],further increase the cell number and reduce the decrease in cell number
same,"cell number and activity (CCK-8, intracellular dehydrogenase activity)",[3],significantly increase cell number and activity
same,proportion of cell death,stem cells [4],significantly reduced the proportion of cell death
